In patent US4316955A, “Enzymatic deesterification of cephalosporin methyl esters” (Eli Lilly and Company, priority 1980, dated 1982):
For at least one compound, name, drawing or mass did not settle the structure.

How the values were obtained:
[1] = system: enzyme produced by Streptomyces capillispira; experiment: Rate of enzymatic deesterification of cephalosporin methyl esters (titrimetric / spot-plate); format: biochemical; conditions: pH-stat titration; for rate of deesterification: enzyme preparation of Example 16, 2.5 mg./ml. of protein
Protocol: Another detection method, called the spot plate method, was carried out by pipetting a carefully measured amount, usually 10 μl., of the mixture to be analyzed onto a filter paper sheet which had small zones outlined by lacquer so that liquids placed on the zones were isolated from each other. If the substrate compound was a nucleus ester, so that acylation was necessary, each zone was also spotted with 10 μl. of 2% sodium bicarbonate solution, and 20 μl. of 2.5% phenoxyacetyl chloride in petroleum ether. The spots were air-dried, and the paper sheets were overlaid on the agar surface of an assay plate which had been seeded with a spore suspension of B. subtilis. The sheets were left on the agar plates for about 45 minutes, and were then removed and the agar plates were incubated at 25° overnight. The sizes of the zones of inhibition were then measured, and the amount of cephalosporin acid in the sample was determined by comparison with the sizes of the zones produced by known amounts of the cephalosporin acid which was the product of the deesterification.
The above biological analytical methods are useful both for unpurified fermentation mixtures, and for purified enzyme preparations. Purified preparations are readily analyzed by titrimetric methods which determine the amount of acid produced by measuring the amounts of base needed to maintain constant pH during the reaction. Thus, the deesterification reaction is easily monitored with an automatic titrator by adding the enzyme preparation to an appropriate substrate solution and following the course of deesterification by the amount of base added to the sample by the automatic titrator.
The activity of the enzyme preparations in the following examples is described as a rate, usually measured in terms of (moles of substrate deesterified)/(mg. of protein or cells)(minute). […]
The substrate against which enzyme activity was measured was methyl 7-amino-3-methyl-3-cephem-4-carboxylate unless otherwise stated. […]

[2] = system: enzyme produced by Streptomyces capillispira; experiment: Deesterification shown by paper chromatography and bioautography; format: biochemical; conditions: purified enzyme 4.5 mg./ml. protein, pH 7.2, 30°, 4 hours; plates seeded with Sarcina lutea
Protocol: The usual method made use of filter paper chromatography, with 4/1 acetonitrile/water as the solvent.
If the substrate ester was a cephalosporin nucleus ester, having only an amino group at the 7-position, then the amount of acid could not be measured directly, because the nucleus acid is not active against the test organism.
The inoculated tube was shaken at 30° for 3 days, and then 4 ml. of the culture was transferred to a 50-ml. flask. To the flask was added 1 ml. of a filter-sterilized substrate solution containing 5 mg./ml. of methyl 7-amino-3-methyl-3-cephem-4-carboxylate at pH 7.0.
The flask was then incubated with shaking at 30° for 16-20 hours to allow the enzyme to deesterify the substrate compound.
The supernatant from the centrifugation was evaluated by paper chromatography as described above, using 4/1 acetonitrile/water as the solvent.
A substrate solution containing about 2 mg./ml. of methyl 7-amino(phenyl)acetamido-3-methyl-3-cephem-4-carboxylate (methyl cephalexin) was prepared in water, at pH 7.2. […] The mixture was shaken at 30° for 4 hours, and was then analyzed by paper chromatography, overlaying the chromatograms on nutrient agar plates seeded with Sarcina lutea.

## COC(=O)C1=C(Cl)CSC2C(NC(=O)C(N)c3ccccc3)C(=O)N12 (stereo not shown) [methyl cefaclor, methyl 7-amino(phenyl)acetamido-3-chloro-3-cephem-4-carboxylate]
[1]; pH 8, 24°, 10 minutes, 0.5 ml. of enzyme preparation containing 0.66 mg./ml. of protein
  rate of ester hydrolysis: 5.8×10^-5 moles of ester hydrolyzed/(minute) (liter) of reaction mixture

## COC(=O)C1=C(C)CSC2C(NC(=O)C(N)c3ccccc3)C(=O)N12 (stereo not shown) [methyl cephalexin, methyl 7-amino(phenyl)acetamido-3-methyl-3-cephem-4-carboxylate]
[1]; pH 7
  rate of deesterification: 4.0×10^-6 moles/(minute) (liter) of reaction mixture
[1]; pH 8
  rate of deesterification: 1.36e-05 mol/min (liter)
[2]
  deesterification to the antibiotic acid, zones of inhibition: Large zones of inhibition
